# Library screen at single concentrations

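Assay of Toxoplasma gondii numbers, read through their beta-galactosidase reporter with a colour substrate. Concentration: 50 µM. The record gives no direction; the compounds picked for IC50 retests had high values, so higher reads as fewer parasites. About 18,000 compounds were tested under these conditions; 0.94% (about 170) showed 50% or more at least once.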

Results are given as percent effect.
The record does not define 0% and 100%; most values in the screen are far below 50% and negative numbers occur (in some assays of this library far below -100).
Compounds were drawn at random from those tested, without regard to their results.

For CN(C)C(=O)c1cc2ccccc2cc1O the result was 3.708%. With O=S(=O)(NCCNc1ccccn1)c1cccnc1 the screen gave 12.5%. For Cc1cccc(N2CCCC(CN3CCOCC3)C2)n1 (stereo not given) the result was 1.003%. For CN(CC(=O)Nc1nccs1)C(=O)c1ccccc1 the result was -1.417%. O=C(CCCc1cn[nH]c1)N1CCS(=O)(=O)CC1 gave -1.399%. Result for CC(C)CC1CCN(S(N)(=O)=O)C1 (stereo not given) was 1.736%. Result for NCCCOc1ncc(C(F)(F)F)cc1Cl was -0.5239%.

Cc1cc(C(=O)OC(C)c2ccccn2)cc(O)n1 (stereo not given) gave 13.8%. Result for CCCNC(=O)C(C)NC(=O)NCCc1cccs1 (stereo not given) was -6.136%. CN(C)S(=O)(=O)NC(CCO)c1cccs1 (stereo not given) gave -10.88%. CCOC(=O)C1(CC2CC2)CCNCC1 gave 2.462%. Cc1cccc(NC(=O)C2CCCNC2)n1 (stereo not given) gave -13.07%. With COc1c(F)cc(CN2CC[C@@H](N)[C@H](O)C2)cc1Cl the screen gave -0.3113%. For c1ncn(CCN2CCNCC2)n1 the result was -4.154%.

Result for OCCC1CNCCN1CCCc1ccccc1 (stereo not given) was -16.97%. With Cc1cc(N)n(CC(=O)NCC2CCCOC2)n1 (stereo not given) the screen gave -5.603%. Result for c1ccc2[nH]c([C@H]3CCCN3)nc2c1 was -1.801%. Result for CCn1nccc1CN1CC(O)(CC#N)C1 was -7.17%. With CC(C)(C)NC(=O)CCNC(=O)c1ccccc1 the screen gave -5.511%. NCCNc1nccc(C(F)(F)F)n1 gave -4.769%. O=C(CN1CCCC1c1ccccc1)N1CCNC1=O (stereo not given) gave -1.721%.

With CCc1cc(C)c(C(=O)Nc2ccc(C(N)=O)nc2)o1 the screen gave -4.576%. Result for CN(Cc1ccco1)S(=O)(=O)c1cnn(C)c1 was -12.1%. CCC(=O)Nc1ccc(CN2CCOCC2)c(Cl)c1 gave -0.9042%. For CN(C)C1(CNC(=O)c2cn[nH]c2)CCOCC1 the result was -2.386%. CC1(c2ccncc2)NC(=O)c2ccccc2N1 (stereo not given) gave 11.28%. With CC(C)Nc1cccc(C(=O)NC(C)CO)c1 (stereo not given) the screen gave 4.951%. CN1CCN(CC2CC23CCNCC3)CC1 (stereo not given) read -24.64%.

NS(=O)(=O)CCNC(=O)CCc1ccc(Br)cc1F gave -14.63%. CCC1CN(S(=O)(=O)N2CCCCC2)CCO1 (stereo not given) gave -3.952%. For CC(C)Oc1cc(CNc2cnccn2)ccn1 the result was -2.877%.

3 of the entries, repeated:

| structure | effect |
|---|---|
| `O=C(CN1CCCC1c1ccccc1)N1CCNC1=O` (stereo not given) | -1.721 |
| `CCC1CN(S(=O)(=O)N2CCCCC2)CCO1` (stereo not given) | -3.952 |
| `CCC(=O)Nc1ccc(CN2CCOCC2)c(Cl)c1` | -0.9042 |

The values are deposited in ChEMBL (CHEMBL3988442, “University of Dundee, Small-Polar-MMV Screening Library” (2021)).